Article doi:10.1101/2021.12.02.470991
These are yes or no findings as the source states them, for the method shown. Binding seen in cells or lysates may run through a third protein. Some entries that bind do so weakly or less than the wild type. For some assays here: Tags and fused reporters may be left off the sequences shown.

The chains behind the UniProt entries cited, without tags or fusion partners.
UniProt Q92922: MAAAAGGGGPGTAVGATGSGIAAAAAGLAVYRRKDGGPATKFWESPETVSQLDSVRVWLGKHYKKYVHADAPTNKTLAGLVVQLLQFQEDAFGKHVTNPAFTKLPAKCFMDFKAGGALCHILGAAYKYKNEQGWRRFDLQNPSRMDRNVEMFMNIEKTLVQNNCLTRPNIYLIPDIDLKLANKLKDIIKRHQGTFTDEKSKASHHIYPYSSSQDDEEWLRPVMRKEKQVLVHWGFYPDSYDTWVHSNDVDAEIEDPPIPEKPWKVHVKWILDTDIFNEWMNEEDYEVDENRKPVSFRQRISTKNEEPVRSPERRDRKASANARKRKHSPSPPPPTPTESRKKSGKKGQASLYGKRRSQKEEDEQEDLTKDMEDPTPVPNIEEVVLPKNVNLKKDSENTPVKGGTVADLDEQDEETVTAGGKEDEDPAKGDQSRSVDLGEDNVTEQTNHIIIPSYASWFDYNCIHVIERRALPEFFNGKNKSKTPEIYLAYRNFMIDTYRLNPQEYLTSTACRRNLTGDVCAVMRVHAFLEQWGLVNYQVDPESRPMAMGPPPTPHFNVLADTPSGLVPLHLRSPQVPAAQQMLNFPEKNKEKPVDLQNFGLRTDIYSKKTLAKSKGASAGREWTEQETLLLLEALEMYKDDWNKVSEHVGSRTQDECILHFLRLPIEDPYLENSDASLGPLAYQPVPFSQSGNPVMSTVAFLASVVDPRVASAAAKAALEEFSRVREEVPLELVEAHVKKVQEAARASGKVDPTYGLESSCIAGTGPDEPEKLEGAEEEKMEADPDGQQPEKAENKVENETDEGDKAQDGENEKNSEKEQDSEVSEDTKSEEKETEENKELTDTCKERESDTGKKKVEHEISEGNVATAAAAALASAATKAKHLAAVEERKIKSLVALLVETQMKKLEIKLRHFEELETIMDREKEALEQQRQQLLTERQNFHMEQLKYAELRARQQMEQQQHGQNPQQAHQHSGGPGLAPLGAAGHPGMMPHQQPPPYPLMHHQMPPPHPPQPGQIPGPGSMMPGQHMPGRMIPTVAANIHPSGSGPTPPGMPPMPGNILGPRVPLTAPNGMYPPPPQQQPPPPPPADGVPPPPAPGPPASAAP

T1: SWI3B fused to YFN (Arabidopsis thaliana) (UniProt Q84JG2)
T1 sequence: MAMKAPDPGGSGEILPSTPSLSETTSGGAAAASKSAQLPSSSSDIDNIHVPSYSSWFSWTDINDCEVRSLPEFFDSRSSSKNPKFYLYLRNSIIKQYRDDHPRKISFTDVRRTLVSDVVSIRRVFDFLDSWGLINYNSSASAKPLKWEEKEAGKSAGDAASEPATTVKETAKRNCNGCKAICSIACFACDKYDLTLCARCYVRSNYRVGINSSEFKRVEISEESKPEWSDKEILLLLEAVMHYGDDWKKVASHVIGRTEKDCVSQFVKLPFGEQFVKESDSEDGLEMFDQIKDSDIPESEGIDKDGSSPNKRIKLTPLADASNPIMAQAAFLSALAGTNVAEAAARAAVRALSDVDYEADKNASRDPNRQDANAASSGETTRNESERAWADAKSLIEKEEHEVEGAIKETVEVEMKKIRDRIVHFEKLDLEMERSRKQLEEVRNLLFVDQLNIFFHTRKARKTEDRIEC


Columns and labels:
[1] = target: HER2 (Epidermal Growth Factor Receptor-family member) (human (endogenous in human cells)) (UniProt P04626); assay: co-IP
[2] = target: T1, SWI3B fused to YFN (Arabidopsis thaliana); assay: split reporter

binding [1]	binding [2]	Molecule
binds	–	BAF155, SWI3-type subunit of human SWI/SNF CRCs (from UniProt Q92922 1-1105)
–	binds	RGL1 DELLA protein fused to YFC (protein, UniProt Q9C8Y3 1-511) MKREHNHRESSAGEGGSSSMTTVIKEEAAGVDELLVVLGYKVRSSDMADVAHKLEQLEMVLGDGISNLSDETVHYNPSDLSGWVESMLSDLDPTRIQEKPDSEYDLRAIPGSAVYPRDEHVTRRSKRTRIESELSSTRSVVVLDSQETGVRLVHALLACAEAVQQNNLKLADALVKHVGLLASSQAGAMRKVATYFAEGLARRIYRIYPRDDVALSSFSDTLQIHFYESCPYLKFAHFTANQAILEVFATAEKVHVIDLGLNHGLQWPALIQALALRPNGPPDFRLTGIGYSLTDIQEVGWKLGQLASTIGVNFEFKSIALNNLSDLKPEMLDIRPGLESVAVNSVFELHRLLAHPGSIDKFLSTIKSIRPDIMTVVEQEANHNGTVFLDRFTESLHYYSSLFDSLEGPPSQDRVMSELFLGRQILNLVACEGEDRVERHETLNQWRNRFGLGGFKPVSIGSNAYKQASMLLALYAGADGYNVEENEGCLLLGWQTRPLIATSAWRINRVE
